Experimental data as given in PMC10940316.
Results are given in words; binding and its absence hold for the method and conditions named. Binding seen in cells or lysates may run through a third protein. Binding calls can cover weak binding; strength is not graded here.

Molecular target: PMP22 with a C-terminal ALFA-tag
Experiment: pull-down; 10 µg purified PMP22-ALFA bound to ALFA-Selector CE magnetic beads, incubated 2 h at 4 °C with precleared rat sciatic nerve (P18) lysate (140 µg protein, 0.23% DDM diluted to 0.047%) of WT and CMT1A rats; six washes, elution with ALFA-peptide; empty beads as control; Western blot; only the target purified

binding: binds
B1: P0, endogenous in rat sciatic nerve (protein, UniProt P06907 30-248)
chain: IVVYTDREVYGAVGSQVTLHCSFWSSEWVSDDISFTWRYQPEGGRDAISIFHYAKGQPYIDEVGTFKERIQWVGDPSWKDGSIVIHNLDYSDNGTFTCDVKNPPDIVGKTSQVTLYVFEKVPTRYGVVLGAVIGGILGVVLLLLLLFYLIRYCWLRRQAALQRRLSAMEKGKFHKSSKDSSKRGRQTPVLYAMLDHSRSTKAASEKKSKGLGESRKDKK
